The values that follow come from patent US9801918B2, “Methods of treatment using extracts of Anisomeles heyneana” (Council of Scientific & Industrial Research, priority 2011, dated 2017).

Structures are written as SMILES.

This data set is described as follows: Solar cell sensitizing activity in dye sensitized solar cells (DSSCs). Particulars: DSSC sensitized with compound; 100 mW/cm^2, 1 sun AM 1.5.

`C[C@@H]1O[C@@H](O[C@@H]2[C@@H](O)[C@H](OCCc3ccc(O)c(O)c3)O[C@H](CO)[C@H]2OC(=O)/C=C/c2ccc(O)c(O)c2)[C@H](O)[C@H](O)[C@H]1O` [Compound 3, 2-(3,4-dihydroxyphenyl)ethyl 3-O-(6-deoxy-alpha-L-mannopyranosyl)-4-O-[(2E)-3-(3,4-dihydroxyphenyl)prop-2-enoyl]-beta-D-gluco pyrano side]: the “Eff. (conversion efficiency of solar energy into electric current)” value is 0.28%, the FF worked out at 59.1%, the Isc was 0.15 mA and the Voc worked out at 0.49 V.
